Data reported in PubChem BioAssay (EPA / NIEHS).
The inconclusive results got no clear call from the source; some entries with a clear call stand among them for comparison. For some assays here: Potencies of inconclusive entries are doubtful fits and often do not repeat. Activity calls are given as the source filed them. How the source made its calls: active means hit-call score of the fitted dose curve at least 0.9, where 1 is the maximum; inconclusive means response in the unintended direction; inactive means score below 0.9.

Sequences of proteins named here, by UniProt entry; tags and fusion partners are left off. A change or cut given only in a name is not applied to a line headed by its entry.
UniProt Q07869: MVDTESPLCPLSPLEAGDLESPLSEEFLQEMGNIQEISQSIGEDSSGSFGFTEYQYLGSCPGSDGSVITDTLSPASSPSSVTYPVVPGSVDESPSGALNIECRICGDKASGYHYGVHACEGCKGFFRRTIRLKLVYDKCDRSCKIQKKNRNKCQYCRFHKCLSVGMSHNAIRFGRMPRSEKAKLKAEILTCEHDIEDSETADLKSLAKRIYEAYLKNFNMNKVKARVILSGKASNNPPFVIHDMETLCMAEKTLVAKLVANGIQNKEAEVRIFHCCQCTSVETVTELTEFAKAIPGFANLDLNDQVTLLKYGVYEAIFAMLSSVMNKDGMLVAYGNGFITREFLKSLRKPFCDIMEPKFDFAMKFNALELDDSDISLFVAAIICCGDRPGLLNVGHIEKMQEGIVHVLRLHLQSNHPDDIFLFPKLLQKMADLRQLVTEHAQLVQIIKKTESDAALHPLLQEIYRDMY
UniProt O75469: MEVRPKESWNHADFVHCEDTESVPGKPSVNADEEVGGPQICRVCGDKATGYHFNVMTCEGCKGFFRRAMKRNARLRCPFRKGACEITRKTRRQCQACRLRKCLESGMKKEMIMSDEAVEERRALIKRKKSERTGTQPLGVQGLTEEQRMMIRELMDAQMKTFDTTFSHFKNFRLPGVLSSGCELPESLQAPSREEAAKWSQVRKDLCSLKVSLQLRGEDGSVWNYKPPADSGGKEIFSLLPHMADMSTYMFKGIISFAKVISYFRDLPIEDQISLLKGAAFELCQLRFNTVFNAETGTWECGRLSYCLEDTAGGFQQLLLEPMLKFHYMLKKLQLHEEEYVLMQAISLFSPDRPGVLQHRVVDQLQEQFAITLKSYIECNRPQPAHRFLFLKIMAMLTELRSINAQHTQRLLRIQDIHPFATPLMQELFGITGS
UniProt Q92753: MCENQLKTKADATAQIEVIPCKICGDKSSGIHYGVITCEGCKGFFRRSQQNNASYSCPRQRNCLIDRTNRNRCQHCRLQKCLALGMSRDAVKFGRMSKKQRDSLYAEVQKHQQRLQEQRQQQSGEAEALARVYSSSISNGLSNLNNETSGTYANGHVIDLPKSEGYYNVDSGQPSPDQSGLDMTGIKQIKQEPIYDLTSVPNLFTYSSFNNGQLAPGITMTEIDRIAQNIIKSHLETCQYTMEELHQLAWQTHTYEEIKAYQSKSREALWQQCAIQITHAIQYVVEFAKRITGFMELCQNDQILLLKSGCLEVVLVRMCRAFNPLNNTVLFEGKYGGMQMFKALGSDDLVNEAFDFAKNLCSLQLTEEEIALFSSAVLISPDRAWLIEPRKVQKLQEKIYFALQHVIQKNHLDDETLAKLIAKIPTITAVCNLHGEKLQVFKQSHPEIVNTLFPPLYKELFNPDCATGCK
UniProt P51449: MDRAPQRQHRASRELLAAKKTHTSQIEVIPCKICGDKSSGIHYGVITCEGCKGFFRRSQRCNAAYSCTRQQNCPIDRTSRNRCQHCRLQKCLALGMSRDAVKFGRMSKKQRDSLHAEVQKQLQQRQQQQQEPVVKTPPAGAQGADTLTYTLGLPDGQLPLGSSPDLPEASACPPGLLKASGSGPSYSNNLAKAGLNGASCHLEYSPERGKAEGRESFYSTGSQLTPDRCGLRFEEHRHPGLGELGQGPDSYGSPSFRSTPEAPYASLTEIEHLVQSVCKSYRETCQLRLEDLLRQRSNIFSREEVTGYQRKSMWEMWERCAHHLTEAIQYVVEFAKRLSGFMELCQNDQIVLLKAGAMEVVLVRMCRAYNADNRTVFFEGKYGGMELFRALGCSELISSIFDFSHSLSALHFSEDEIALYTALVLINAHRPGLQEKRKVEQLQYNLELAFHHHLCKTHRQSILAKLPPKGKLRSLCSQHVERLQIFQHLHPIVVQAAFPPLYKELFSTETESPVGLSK
UniProt P19793: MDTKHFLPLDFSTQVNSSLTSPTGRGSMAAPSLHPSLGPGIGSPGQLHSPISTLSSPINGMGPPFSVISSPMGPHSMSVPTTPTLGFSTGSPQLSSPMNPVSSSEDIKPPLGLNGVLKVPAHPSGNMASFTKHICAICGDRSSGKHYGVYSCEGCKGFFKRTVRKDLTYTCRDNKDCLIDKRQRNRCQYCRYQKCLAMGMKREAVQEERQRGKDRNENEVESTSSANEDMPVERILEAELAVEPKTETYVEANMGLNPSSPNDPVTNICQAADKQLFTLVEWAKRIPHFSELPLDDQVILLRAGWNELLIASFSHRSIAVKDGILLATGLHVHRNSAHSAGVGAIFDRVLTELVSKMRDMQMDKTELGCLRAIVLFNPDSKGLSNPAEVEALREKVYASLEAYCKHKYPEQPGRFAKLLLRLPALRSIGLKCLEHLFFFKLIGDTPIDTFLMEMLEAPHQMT
UniProt P28702: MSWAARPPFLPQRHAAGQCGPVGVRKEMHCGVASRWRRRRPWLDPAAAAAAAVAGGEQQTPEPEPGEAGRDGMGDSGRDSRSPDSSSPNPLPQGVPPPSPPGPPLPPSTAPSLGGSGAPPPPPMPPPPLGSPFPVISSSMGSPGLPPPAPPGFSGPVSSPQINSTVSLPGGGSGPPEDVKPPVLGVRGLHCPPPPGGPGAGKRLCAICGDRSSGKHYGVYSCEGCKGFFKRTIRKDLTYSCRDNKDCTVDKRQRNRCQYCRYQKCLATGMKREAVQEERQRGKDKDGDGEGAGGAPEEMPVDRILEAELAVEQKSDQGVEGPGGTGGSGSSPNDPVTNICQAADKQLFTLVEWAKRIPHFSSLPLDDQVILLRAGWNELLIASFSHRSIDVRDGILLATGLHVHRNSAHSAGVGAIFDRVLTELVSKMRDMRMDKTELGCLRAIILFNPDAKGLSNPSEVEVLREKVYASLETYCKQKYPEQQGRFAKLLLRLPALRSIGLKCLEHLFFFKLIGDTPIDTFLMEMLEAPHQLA
UniProt P10827: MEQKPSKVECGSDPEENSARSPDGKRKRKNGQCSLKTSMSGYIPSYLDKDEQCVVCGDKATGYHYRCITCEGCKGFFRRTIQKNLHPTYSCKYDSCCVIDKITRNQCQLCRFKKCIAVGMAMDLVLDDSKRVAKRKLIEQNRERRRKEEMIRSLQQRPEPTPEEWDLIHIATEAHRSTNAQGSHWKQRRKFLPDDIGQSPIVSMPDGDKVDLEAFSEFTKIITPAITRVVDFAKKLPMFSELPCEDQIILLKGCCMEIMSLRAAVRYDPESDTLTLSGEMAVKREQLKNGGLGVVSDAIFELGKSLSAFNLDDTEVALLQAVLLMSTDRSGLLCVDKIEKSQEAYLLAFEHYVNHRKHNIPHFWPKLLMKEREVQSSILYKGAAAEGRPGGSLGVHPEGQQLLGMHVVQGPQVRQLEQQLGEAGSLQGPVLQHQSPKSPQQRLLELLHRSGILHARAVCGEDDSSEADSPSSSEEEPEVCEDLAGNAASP

Key:
[1] = biological target: human Peroxisome Proliferator-activated Receptor alpha (PPARa), PPARA (gene 5465) (UniProt Q07869); experiment: ATG_PPARa_TRANS: Attagene TRANS-FACTORIAL HepG2 Assay for human Peroxisome Proliferator-activated Receptor alpha (PPARa) (AID 2283001);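 further: potency for gain of reporter signal over DMSO so agonist or activator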
How it was run: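 HepG2 cells transiently transfected with multiplexed GAL4-UAS reporter units and chimeric NR-Gal4 constructs were dosed for 24 h. Reporter mRNA was measured by RT-PCR with fluorescent labelling and capillary electrophoresis; gain of signal fitted against DMSO.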

[2] = biological target: Nuclear receptor subfamily 1 group I member 2 (Homo sapiens) (UniProt O75469); experiment: ATG_PXR_TRANS: Attagene TRANS-FACTORIAL HepG2 Assay for human Pregnane X Receptor (PXR) (AID 2283008)
How it was run: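 HepG2 cells transiently transfected with GAL4-UAS reporter units and PXR-Gal4 chimera, exposed 24 h. Reporter mRNA quantified by RT-PCR, fluorescent labelling, HpaI digestion and capillary electrophoresis; gain of signal vs DMSO.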

[3] = biological target: human RAR-related Orphan Receptor beta (RORb), RORB (gene 6096) (UniProt Q92753); experiment: ATG_RORb_TRANS: Attagene TRANS-FACTORIAL HepG2 Assay for human RAR-related Orphan Receptor beta (RORb) (AID 2283010);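 further: potency for increased reporter mRNA meaning activation of RORb-Gal4 chimera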
How it was run: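 HepG2 cells were transiently transfected with multiplexed GAL4-UAS reporter units expressing chimeric nuclear receptor–GAL4 proteins, then dosed for 24 h. Reporter mRNA was quantified by RT-PCR with fluorescent labelling and capillary electrophoresis; gain of signal was fitted relative to DMSO.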

[4] = biological target: human RAR-related Orphan Receptor gamma (RORg), RORC (gene 6097) (UniProt P51449); experiment: ATG_RORg_TRANS: Attagene TRANS-FACTORIAL HepG2 Assay for human RAR-related Orphan Receptor gamma (RORg) (AID 2283011);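 further: potency for induction of reporter transcripts above DMSO so activators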
How it was run: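 First, HepG2 liver cells were transfected with GAL4-UAS-driven reporter constructs and the RORg-Gal4 fusion. Next, they were treated with chemical for 24 h. Finally, reporter mRNA was quantified by RT-PCR and capillary electrophoresis, with upward activity fitted against DMSO.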

[5] = biological target: Retinoic acid receptor RXR-alpha (Homo sapiens) (UniProt P19793); experiment: ATG_RXRa_TRANS: Attagene TRANS-FACTORIAL HepG2 Assay for human Retinoid X Receptor alpha (RXRa) (AID 2283012)
How it was run: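 HepG2 cells transiently transfected with multiplexed GAL4-UAS reporter units and chimeric NR-GAL4 fusions, dosed 24 h. Reporter mRNA measured by RT-PCR, FAM labelling, HpaI digestion and capillary electrophoresis; gain-of-signal fitted relative to DMSO baseline.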

[6] = biological target: human Retinoid X Receptor beta (RXRb), RXRB (gene 6257) (UniProt P28702); experiment: ATG_RXRb_TRANS: Attagene TRANS-FACTORIAL HepG2 Assay for human Retinoid X Receptor beta (RXRb) (AID 2283013)
How it was run: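 HepG2 cells transiently transfected with multiplexed reporter units driven by GAL4-UAS and exogenous chimeric NR-Gal4 proteins; treated 24 h. Reporter mRNA measured by RT-PCR, 6-FAM labelling and capillary electrophoresis; gain-of-signal fitted versus DMSO baseline.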

[7] = biological target: human Thyroid Receptor alpha (THRa1), THRA (gene 7067) (UniProt P10827); experiment: ATG_THRa1_TRANS: Attagene TRANS-FACTORIAL HepG2 Assay for human Thyroid Receptor alpha (THRa1) (AID 2283014)
How it was run: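 Reporter transcript induction, read by capillary electrophoresis of 6-FAM-labelled RT-PCR products, reflects activity of a transfected THRa1-Gal4 fusion in HepG2 liver cells. Cells were dosed for 24 h; activity was fitted in the positive direction against DMSO.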

[8] = CCTE_Harrill_HTTr_CellCount_MCF7: CCTE's Cell Proliferation Assessment for the High-Throughput Transcriptomics (HTTr) Platform, Harrill Lab (AID 2284012);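 further: cells exposed to compound for six hours; intended direction is loss of nuclei count meaning fewer cells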
How it was run: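 MCF-7 cells were exposed for 6 h to an eight-point dilution series; Hoechst-labeled nuclei were counted by high content imaging. Curves were fitted bidirectionally against DMSO as negative control and baseline, with signal loss indicating reduced cell count.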

Measured: AC50

O=[N+]([O-])c1ccccc1Cl
inactive: [2]
inconclusive: [1] 25 µM | [3] 25 µM | [4] 25 µM | [5] 0.499 µM | [6] 15.6 µM | [7] 0.542 µM | [8] 50 µM
